## Results of single-concentration screens

Sequences of proteins named here, by UniProt entry; tags and fusion partners are left off. Residues count along the entry.
UniProt P9WNZ1, whole entry: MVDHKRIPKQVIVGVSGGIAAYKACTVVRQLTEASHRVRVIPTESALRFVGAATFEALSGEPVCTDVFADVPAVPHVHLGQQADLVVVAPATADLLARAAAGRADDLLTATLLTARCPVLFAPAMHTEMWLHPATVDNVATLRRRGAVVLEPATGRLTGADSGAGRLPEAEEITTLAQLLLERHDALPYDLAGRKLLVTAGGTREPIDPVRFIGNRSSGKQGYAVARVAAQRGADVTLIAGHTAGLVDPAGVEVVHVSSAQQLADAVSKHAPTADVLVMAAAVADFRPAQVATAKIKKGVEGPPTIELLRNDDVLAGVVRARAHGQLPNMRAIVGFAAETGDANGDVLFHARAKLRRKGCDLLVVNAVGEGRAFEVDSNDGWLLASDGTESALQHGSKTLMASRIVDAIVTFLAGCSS
UniProt I6X8D2, whole entry: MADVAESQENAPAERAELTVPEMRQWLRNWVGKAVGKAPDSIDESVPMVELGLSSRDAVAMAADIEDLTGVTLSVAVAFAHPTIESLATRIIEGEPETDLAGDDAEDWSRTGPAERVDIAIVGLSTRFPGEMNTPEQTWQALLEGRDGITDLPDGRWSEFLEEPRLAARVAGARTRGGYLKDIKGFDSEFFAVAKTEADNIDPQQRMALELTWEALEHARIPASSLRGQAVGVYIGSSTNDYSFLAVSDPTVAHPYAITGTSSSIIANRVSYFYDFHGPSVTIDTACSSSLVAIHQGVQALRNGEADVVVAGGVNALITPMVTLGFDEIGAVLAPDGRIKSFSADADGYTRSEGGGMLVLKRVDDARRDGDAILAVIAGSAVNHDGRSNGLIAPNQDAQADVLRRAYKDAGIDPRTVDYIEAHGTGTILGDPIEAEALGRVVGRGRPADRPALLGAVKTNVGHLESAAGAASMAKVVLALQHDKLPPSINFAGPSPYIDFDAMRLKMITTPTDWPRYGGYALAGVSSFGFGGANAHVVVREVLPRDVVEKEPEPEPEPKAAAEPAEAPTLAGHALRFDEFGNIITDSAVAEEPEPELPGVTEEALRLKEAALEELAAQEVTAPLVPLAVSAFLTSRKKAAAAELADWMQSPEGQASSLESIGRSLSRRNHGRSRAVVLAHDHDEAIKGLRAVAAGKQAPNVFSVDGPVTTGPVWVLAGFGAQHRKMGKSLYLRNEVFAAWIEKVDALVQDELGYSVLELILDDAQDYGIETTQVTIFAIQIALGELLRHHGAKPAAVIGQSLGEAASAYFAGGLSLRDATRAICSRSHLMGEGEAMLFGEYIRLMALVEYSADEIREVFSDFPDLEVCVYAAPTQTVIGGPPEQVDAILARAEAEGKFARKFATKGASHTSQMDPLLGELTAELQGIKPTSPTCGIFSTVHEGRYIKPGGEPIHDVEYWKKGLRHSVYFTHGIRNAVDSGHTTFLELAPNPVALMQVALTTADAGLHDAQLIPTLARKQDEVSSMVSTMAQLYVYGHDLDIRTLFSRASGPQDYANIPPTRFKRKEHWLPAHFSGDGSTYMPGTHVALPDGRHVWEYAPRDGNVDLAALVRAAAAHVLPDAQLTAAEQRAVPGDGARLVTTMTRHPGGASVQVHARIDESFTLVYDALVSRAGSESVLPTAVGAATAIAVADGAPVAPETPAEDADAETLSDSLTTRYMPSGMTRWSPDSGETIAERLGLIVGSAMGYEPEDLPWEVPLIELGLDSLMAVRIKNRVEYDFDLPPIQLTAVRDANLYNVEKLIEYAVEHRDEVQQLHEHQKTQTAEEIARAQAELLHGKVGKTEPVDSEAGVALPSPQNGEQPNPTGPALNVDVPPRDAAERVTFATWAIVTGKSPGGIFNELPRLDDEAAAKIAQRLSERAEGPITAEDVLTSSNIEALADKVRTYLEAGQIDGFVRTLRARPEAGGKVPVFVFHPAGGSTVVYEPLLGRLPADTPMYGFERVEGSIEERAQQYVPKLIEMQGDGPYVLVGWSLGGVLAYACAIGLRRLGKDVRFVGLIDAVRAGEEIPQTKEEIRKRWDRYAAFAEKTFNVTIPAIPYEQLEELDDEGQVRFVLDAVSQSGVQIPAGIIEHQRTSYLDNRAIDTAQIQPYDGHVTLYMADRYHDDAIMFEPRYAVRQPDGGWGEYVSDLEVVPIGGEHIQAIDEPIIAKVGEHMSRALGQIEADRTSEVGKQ
UniProt P9WPC5, whole entry: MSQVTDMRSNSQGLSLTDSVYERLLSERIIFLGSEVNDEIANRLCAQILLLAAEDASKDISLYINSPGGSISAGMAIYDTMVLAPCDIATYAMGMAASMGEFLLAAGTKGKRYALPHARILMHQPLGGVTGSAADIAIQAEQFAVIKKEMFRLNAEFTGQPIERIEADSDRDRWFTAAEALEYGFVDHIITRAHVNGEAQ
UniProt P9WPC3, whole entry partner: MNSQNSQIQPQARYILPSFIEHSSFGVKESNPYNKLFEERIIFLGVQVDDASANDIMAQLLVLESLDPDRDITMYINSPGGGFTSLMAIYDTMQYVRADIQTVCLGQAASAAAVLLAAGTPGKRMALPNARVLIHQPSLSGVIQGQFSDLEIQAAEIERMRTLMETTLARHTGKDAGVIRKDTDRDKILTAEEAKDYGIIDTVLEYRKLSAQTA
UniProt Q4DA54, 1-478: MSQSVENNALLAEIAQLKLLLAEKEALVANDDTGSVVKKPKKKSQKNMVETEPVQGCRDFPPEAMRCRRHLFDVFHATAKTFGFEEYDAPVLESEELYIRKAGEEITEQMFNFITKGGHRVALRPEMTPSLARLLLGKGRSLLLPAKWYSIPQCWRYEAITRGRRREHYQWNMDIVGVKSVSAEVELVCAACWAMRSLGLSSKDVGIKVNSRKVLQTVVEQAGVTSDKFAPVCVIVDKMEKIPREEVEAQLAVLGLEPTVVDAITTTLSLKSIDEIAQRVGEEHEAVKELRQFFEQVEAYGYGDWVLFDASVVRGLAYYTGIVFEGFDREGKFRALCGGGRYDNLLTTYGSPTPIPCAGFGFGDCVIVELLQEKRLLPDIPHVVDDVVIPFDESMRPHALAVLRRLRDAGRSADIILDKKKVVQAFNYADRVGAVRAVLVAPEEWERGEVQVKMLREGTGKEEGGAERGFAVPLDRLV

Measurements from “University of Dundee, Small-Polar-MMV Screening Library” (2021), ChEMBL document CHEMBL3988442.

Values are the deposited “Percent Effect”, in %.
The controls that fix the scale are not given in the record; negative values are as filed.
This is an unselected part of the compounds tested.
A dash means the value is not listed here; it may have been measured.

CoaBC: 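Coenzyme A biosynthesis protein CoaBC, Mycobacterium tuberculosis (UniProt P9WNZ1). Enzyme assay of CoaBC with a phosphate dye (Biomol Green) read at 650 nm. Compounds at 30 µM. Direction is inferred from only a few compounds that gave an IC50; most scored high, so higher reads as stronger inhibition. Most strong results did not repeat in a second test. Size under these conditions: about 67,000 compounds, about 40 of them at 50% or above in at least one test.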
Leishmania in macrophages: 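Cell assay of Leishmania donovani living inside macrophages; the read-out is not stated. Compounds at 30 µM. Direction is inferred from retests: higher values go with stronger inhibition. About 69,000 compounds were tested under these conditions; 1.5% (about 1,000) showed 50% or more at least once.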
Pks13 thioesterase: 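Enzyme assay of the thioesterase domain of polyketide synthase 13; the read-out is not stated. Target: Polyketide synthase Pks13, Mycobacterium tuberculosis (UniProt I6X8D2). Compounds at 30 µM. The record gives no direction; the compounds picked for IC50 retests had high values, so higher reads as stronger inhibition. About 67,000 compounds were tested under these conditions; 0.46% (about 300) showed 50% or more at least once.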
ClpP1P2: 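ClpP1P2, Mycobacterium tuberculosis (UniProt P9WPC5 and UniProt P9WPC3). Protease assay of ClpP1P2, read by the AMC dye that it sets free. Tested at 50 µM. Higher reads as stronger inhibition, judged from the few compounds that gave an IC50. Most other retested compounds had strongly negative values. Size under these conditions: about 69,000 compounds, about 10 of them at 50% or above in at least one test.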
TcHisRS: 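Histidine-tRNA ligase, Trypanosoma cruzi CL Brener (UniProt Q4DA54). Enzyme assay of histidyl-tRNA synthetase; the read-out is not stated. Tested at 30 µM. Higher reads as stronger inhibition (inferred: compounds with an IC50 in retests scored well above the rest). About 69,000 compounds were tested under these conditions; 0.045% (about 31) showed 50% or more at least once.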

Result for Cc1cc(C(=O)NCCSC2CCCC2)no1 was CoaBC: -0.9615%; Leishmania in macrophages: 13.9%; Pks13 thioesterase: -3.024%; ClpP1P2: -3.738%; TcHisRS: 8.861%. [H][C@]12CN(Cc3ncccn3)CC[C@@]1(O)CCN(C(=O)C1CCCC1)C2 read Leishmania in macrophages: 25.42%. CN(Cc1n[nH]c2c1CCCC2)c1cc(N2CCOCC2)nc(N)n1 gave CoaBC: 1.353%; Leishmania in macrophages: -6.428%; Pks13 thioesterase: -6.535%; ClpP1P2: 10.85%; TcHisRS: 9.195%. For [H][C@]12CC[C@]([H])(CN(C(=O)c3ccccc3)C1)N(C(=O)CN1CCOCC1)C2 the result was Leishmania in macrophages: 12.92%. COc1cc2[nH]c(C(=O)O)cc2c(OC)c1C gave CoaBC: -2.552%; Leishmania in macrophages: 10.01%; Pks13 thioesterase: -12.98%; ClpP1P2: -3.781%; TcHisRS: -0.9901%. CN(CC(=O)NC(Cc1ccsc1)c1cccnc1)Cc1cccnc1 (centres unmarked) gave CoaBC: 5.479%; Pks13 thioesterase: -26.48%; ClpP1P2: -29.57%; TcHisRS: 5.429%. For CCc1noc(C)c1C(=O)N1CCCN(Cc2cscn2)CC1 the result was CoaBC: 3.133%; Leishmania in macrophages: 9.648%; Pks13 thioesterase: -16.76%; ClpP1P2: -23.15%; TcHisRS: 9.621%.

[H][C@@]12CO[C@@H](CNS(C)(=O)=O)[C@]1([H])CCN(C(=O)c1ccccc1)C2 read Leishmania in macrophages: 13.65%. Cc1ccc(OC2(C(=O)O)CCN(C(=O)c3ccoc3C)CC2)cn1 gave CoaBC: 13.49%; Leishmania in macrophages: -24.29%; Pks13 thioesterase: -0.9022%; ClpP1P2: -4.574%; TcHisRS: 1.02%. With [H][C@@]12CCN(C(C)=O)C[C@]1(C(=O)NCc1ccco1)CCO2 the screen gave Leishmania in macrophages: -7.996%. For O=C(O)C(F)(F)F.[H][C@]12CCC[C@@H](CN(C)C3CC3)[C@@]1([H])CN(c1cc(OC)ncn1)C2 the result was Leishmania in macrophages: 2.382%. Cl.[H][C@@]12CCN(C3CCCCC3)C[C@]1([H])[C@@H](c1ccsc1)CN2C(=O)C(C)(C)C gave Leishmania in macrophages: 6.438%. O=C(CCNc1ncc2c(n1)CCN2c1ccccc1)N1CCCC1 read CoaBC: 4.292%; Leishmania in macrophages: 12.12%; Pks13 thioesterase: 2.092%; ClpP1P2: -3.628%; TcHisRS: 23.26%. For Cc1ccc(S(=O)(=O)NCCNC(=O)c2cncnc2C)cc1 the result was CoaBC: 5.909%; Leishmania in macrophages: 15.56%; Pks13 thioesterase: -9.224%; ClpP1P2: 4.38%; TcHisRS: 7.027%.

CC(C)c1nn(C)c(Cl)c1CNCc1ccc2c(c1)OCO2.Cl gave Leishmania in macrophages: 31.69%.

For reference, 2 entries once more:

Compound	CoaBC	Leishmania in macrophages	Pks13 thioesterase	ClpP1P2	TcHisRS
CN(CC(=O)NC(Cc1ccsc1)c1cccnc1)Cc1cccnc1 (centres unmarked)	5.479	-	-26.48	-29.57	5.429
[H][C@@]12CCN(C(C)=O)C[C@]1(C(=O)NCc1ccco1)CCO2	-	-7.996	-	-	-